Values of other authors in patent US9345733B1, “Supplement composition for supporting telomere maintenance and protection and method of use” (CELLHEALTH TECHNOLOGIES LTD., priority 2011, dated 2016).
For at least one compound, name, drawing or mass did not settle the structure.

Test system: human monocytes

## COc1cc(C2Oc3cc([C@H]4Oc5cc(O)cc(O)c5C(=O)[C@@H]4O)ccc3OC2CO)ccc1O (some centres unmarked) [silibinin]
  TNF-a production: inhibitory effect
  hydrogen peroxide release: inhibitory effect
